# Measured values as given in the supplement of paper PMC3334620.
# Over roughly 33,000 sequences, “E-score (-0.5 to 0.5)” has its median near -0.0059; the highest 2% begin near 0.26. This is one part of the list.
# Target: T1, Cin5 (UniProt P40917)
# T1 sequence: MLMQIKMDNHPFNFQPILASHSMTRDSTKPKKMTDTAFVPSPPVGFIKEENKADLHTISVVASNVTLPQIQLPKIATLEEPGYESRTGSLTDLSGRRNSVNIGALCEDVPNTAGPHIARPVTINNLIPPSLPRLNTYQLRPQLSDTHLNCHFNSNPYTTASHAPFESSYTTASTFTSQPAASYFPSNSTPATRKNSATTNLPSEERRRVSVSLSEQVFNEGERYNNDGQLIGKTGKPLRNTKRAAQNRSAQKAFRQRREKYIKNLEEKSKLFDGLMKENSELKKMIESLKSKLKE
# Test: PBM E-score (8-mer binding enrichment) (E-score (-0.5 to 0.5)); higher = stronger / more preferred TF binding
# Details: protein concentration: 100 nM; construct: GST-full length
# Outline: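 Universal all-10-mer Agilent arrays, double-stranded by primer extension on fresh or once-stripped slides, were probed with about 100-200 nM GST-tagged yeast transcription factors made by PURExpress. Fluorescent anti-GST detected bound protein, and masliner normalised the scans. E-scores from the Universal PBM Analysis Suite were given to each ungapped eight-base word pooled with its reverse complement.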
row,Sequence,PBM E-score
1,CCACACCC,-0.0164
2,CATGATCG,0.088
3,CAGGCTAC,-0.00917
4,CGCATATC,0.247
5,CTGGTCAC,-0.107
6,TACTCCCA,0.0334
7,CATAACTC,-0.015
8,CAGGCAAC,-0.0103
9,AGCCTACC,-0.228
10,CGTGTCGA,-0.179
11,GCAATAAA,0.16
12,AATATACG,0.11
13,CGTACCGC,-0.0476
14,AACCGACA,0.038
15,CAATTTGG,0.0328
16,ACACGGGA,0.00195
17,GCTTGTCA,-0.0215
18,CTCCCACA,-0.169
19,CGGAATCA,0.27
20,CACGTATG,-0.0843
21,GGCCTTCA,-0.137
22,AAATGGAG,0.0584

row,Sequence,PBM E-score
1,ACCACCCT,-0.163
2,CTATGGGC,-0.051
3,ATCGGCAC,-0.00711
4,CCCCGCGC,-0.0233
5,GCCCGGGA,-0.128
6,AACACTTC,0.172
7,CCAAGTTC,0.0755
8,GTGTTCCA,-0.103
9,CGGCCCTA,-0.0802
10,GTAAACTA,0.132
11,GCCGCTCA,-0.13
12,GCACCAGC,-0.172
13,ACGGGAGG,-0.169
14,CAACGAAA,0.182
15,GTTAATCA,0.239
16,TCTTACAA,0.0121
17,ATTAGGAC,-0.115
18,AGTTGCGG,0.237
19,AGCCGTGA,0.05
20,ACGCCCTA,-0.261
21,ACAGTTAA,0.17
22,GCACCAAA,0.0873

# Individual results from the list.
# ACAGTTAA | PBM E-score: 0.17
# ATCGGCAC | PBM E-score: -0.00711
# AACACTTC | PBM E-score: 0.172
# AGTTGCGG | PBM E-score: 0.237
# GCACCAAA | PBM E-score: 0.0873
# CCAAGTTC | PBM E-score: 0.0755

# Later entries.

row,Sequence,PBM E-score
1,ATCCAGAC,0.0041
2,AGAGGTGA,0.101
3,CTTAGTAC,0.0461
4,ATGGAACG,-0.00049
5,AGTTAATC,0.2
6,AGTCAACG,-0.0325
7,GAAAACAC,-0.0644
8,ATCTGACG,-0.00476
9,CGTATAAG,0.0145
10,ACGACAGC,0.0108
11,CGATTAAG,0.092
12,CACCCTAG,0.00459
13,AATAGATT,0.125
14,ATAATGTG,0.134
15,ATCGCATG,0.108
16,AATGTGGC,0.0846
17,AAGATACT,0.115
18,ACCCTCAG,0.0274
19,GCGAGCGA,0.0335
20,ATATTCTC,0.235
21,CATATGAC,-0.0298
22,GAGTTACA,0.232

row,Sequence,PBM E-score
1,CCCATATA,0.178
2,GGGACACA,0.0855
3,AGTGAAAC,0.118
4,CATTATGC,0.155
5,CCCATCCG,-0.0498
6,GAGCCACC,-0.354
7,ATGCAAAA,0.165
8,TCTGAAAA,0.0776
9,CATATAAA,0.138
10,CGGATCTC,-0.053
11,CATCACCG,0.0152
12,CTCTCGGA,0.0455
13,CCTCGAAC,-0.0958
14,GCACTTCA,0.094
15,GTAAGCCA,0.264
16,AAGCGGAA,0.2
17,CATCATGC,0.14
18,GACGCAAC,-0.163
19,AAGTCCAT,-0.091
20,ACAAGGTC,-0.041
21,ATCCATCC,0.0833
22,ATTTCTTG,0.133

row,Sequence,PBM E-score
1,CAACCCAC,0.0689
2,AACCCAAT,0.00173
3,CCCTGTAC,-0.116
4,CCTCGTGA,-0.128
5,ATTCACGG,-0.0451
6,AGCTAGTG,-0.0149
7,GTTAAGAA,-0.0647
8,AATGGACA,0.0126
9,TGTTATAA,0.24
10,GCGGAGAA,0.029
11,CGCAAGTA,0.109
12,AACCGAAC,-0.0782
13,CCGCTCGA,-0.0568
14,CCTGTCTA,-0.126
15,CGGTGAGC,-0.148
16,ATAGTGTC,0.0674
17,CAACTCCC,0.0769
18,AAGTTCAC,0.0299
19,CGCTTCGC,-0.133
20,CCTGGCGC,-0.0837
21,AGTTCACG,-0.149
22,CCGACAAA,0.0778
